# Data reported in PubChem BioAssay AID1688 (National Center for Advancing Translational Sciences (NCATS), 2009).
# About 2,400 (1.1%) of roughly 220,000 compounds were called active. The shares of active, inactive and inconclusive entries below differ from those in the screen. Calls come from the whole dose curve; as a rule, active = well fitted inhibition curve with a large enough effect; inconclusive = small, poorly fitted or top-dose-only effect, or effect the other way; inactive = no such curve, though single readings can be large or run the other way. A potency beside an inconclusive call is a rough fit, not a confirmed value.
# Assay: qHTS Multiplex Assay to Identify Dual Action Probes in a Cell Model of Huntington: Aggregate Formation (GFP); note: nearly all actives have a fitted effect of over 60% in size
# Details: PC12 HttQ103-GFP aggregates, Acumen cytometry, 40 h; activity change, negative = inhibition: at 46.1 µM (top of the series) unless noted
# How it was run: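 Read-out: GFP aggregate count by laser scanning cytometer (488 nm excitation, 500-530 nm emission, 1–25 µm objects >6 SD above background). Cells: PC12, inducible HTTex1-Q103-GFP, 100 nM tebufenozide; compounds titrated.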
# % is set by controls: 0 for no effect and ±100 for the full control effect; potency is the fitted concentration of half-maximal effect.
SMILES,Potency,"activity change, negative = inhibition"
O=C(c1ccccc1)N1CCC(c2nc3c(nnn3Cc3ccccc3Cl)c(=O)[nH]2)CC1,"inconclusive: 31.6 µM [inhibitor, single point]",
O=C(NC(Cc1ccccc1)C(=O)Oc1ccc2c(C(F)(F)F)cc(=O)oc2c1)OCc1ccccc1 (stereo not given),"inconclusive: 35.5 µM [inhibitor, single point]",
Cc1cc(/C=C2\SC(=Nc3ccccc3)NC2=O)c(C)n1-c1ccc(S(N)(=O)=O)cc1,"inconclusive: 20 µM [inhibitor, single point]",
COCCN(C)Cc1cn(-c2ccc(F)cc2F)nc1-c1ccccc1C,"inconclusive: 2.82 µM [activator, partial curve]",
CC1(C)Cc2c(C#N)c(N3CCN(C(=O)c4ccco4)CC3)nc(Cc3ccccc3)c2CO1,"inconclusive: 35.5 µM [inhibitor, single point]",
FC(F)(F)c1cnc(NNC(=S)Nc2cccnc2)c(Cl)c1,"inconclusive: 14.1 µM [inhibitor, partial curve]",
COc1ccc(N2C(=O)C3ON(C4SC(=S)N(C)C4(C)C)C(c4ccc(Cl)cc4)C3C2=O)cc1 (stereo not given),"inconclusive: 6.31 µM [inhibitor, single point]",
O=C(Nc1cccnc1)c1cccs1,"inconclusive: 3.16 µM [inhibitor, full curve, poor fit]",
CCn1cc(C(=O)NCc2ccco2)c(=O)c2cc(S(=O)(=O)N3CCC(C)CC3)ccc21,"inconclusive: 0.562 µM [inhibitor, full curve, poor fit]",
Cc1ccc2nc(-c3ccco3)c(Nc3ccccc3)n2c1,"inconclusive: 6.31 µM [activator, full curve]",
Nc1nnc(SC2CC(=O)N(c3ccccc3)C2=O)s1 (stereo not given),"inconclusive: 35.5 µM [inhibitor, single point]",
CCOC(=O)c1c(-c2ccc(OC)cc2)csc1/N=C/C1C(=O)CCCC1=O,"inconclusive: 35.5 µM [inhibitor, single point]",
Cc1ccc(C(=O)O/N=C/c2c(N3CCOCC3)n(C)c3ccccc23)cc1,"inconclusive: 2.24 µM [inhibitor, partial curve, poor fit]",
CCOc1cc(CNCCCN2CCOCC2)ccc1OCC(=O)Nc1cccc2ccccc12,"inconclusive: 35.5 µM [inhibitor, single point]",
Cn1c(Cc2cccc3ccccc23)nnc1SCC(=O)N1CCN(c2cccc(Cl)c2)CC1,"inconclusive: 1.12 µM [inhibitor, full curve]",
COc1cc(C(=O)OCC(=O)N2CCCCC2C)cc(NC(=O)c2cccs2)c1OC (stereo not given),"inconclusive: 35.5 µM [inhibitor, single point]",
CC(=O)Nc1ccc(N(C(=O)CNC(=O)c2ccco2)C(C(=O)NCC2CCCO2)c2ccccc2)cc1 (stereo not given),,inactive: -0.789% [at 9.22 µM]
CC(NC(=O)/C=C/c1cnc2ccccc2n1)C12CC3CC(CC(C3)C1)C2 (stereo not given),"inconclusive: 5.62 µM [activator, single point]",
Cc1cccc(C(=O)N2CCN(c3ncnc4c3cnn4-c3ccccc3)CC2)c1,"inconclusive: 28.2 µM [inhibitor, single point]",
Cc1ccccc1NC(=O)c1onc2c1CCCC2,"inconclusive: 1.26 µM [inhibitor, single point]",
Cc1c(C(=O)N2CCCC2)sc(NC(=O)c2ccc(Cl)cc2)c1C#N,"inconclusive: 22.4 µM [inhibitor, single point]",
O=C(N1CCN(Cc2ccccc2)CC1)C12CC3CC(CC(C3)C1)C2,"inconclusive: 10 µM [inhibitor, partial curve]",
CC(Sc1nc2ccccc2s1)C(=O)c1c(N)n(C)c(=O)n(C)c1=O (stereo not given),"inconclusive: 11.2 µM [inhibitor, single point]",
O=C1NC(c2ccccc2)(C(F)(F)F)C(=O)N1Cc1cccnc1 (stereo not given),inactive,

SMILES,Potency,"activity change, negative = inhibition"
COc1ccc(/C=N/OCC(=O)NC(c2ccccc2)c2ccccc2)c(OC)c1,"inconclusive: 12.6 µM [inhibitor, single point]",
C/C(=N\O)c1ccc2c3c([nH]c2c1)CCCC3,"inconclusive: 35.5 µM [inhibitor, single point]",
CCOP(=O)(OCC)c1nc(-c2cccc3ccccc23)oc1N1CCOCC1,inactive,
COCCNC(=O)CN(C(=O)CCC(=O)Nc1ccccn1)c1ccc(F)cc1,inactive,
O=C(NC(c1ccccc1)c1ccccc1)N1CCN(CCO)CC1,"inconclusive: 1.26 µM [activator, single point]",
CCn1c(SCC(=O)c2c[nH]c3ccccc23)nnc1-c1cccs1,"inconclusive: 35.5 µM [inhibitor, single point]",
COC(=O)c1c(NC(=O)c2ccccc2)sc(C(=O)c2ccccc2)c1C,"inconclusive: 11.2 µM [inhibitor, partial curve]",
O=C1C=CC(=O)C(C2=C3C(=O)N(CCc4ccccc4)CC(=O)N3CCC2)=C1,active: 7.08 µM,
CCOc1ccccc1N1CCN(C(=O)C(Sc2ccccc2)c2ccccc2)CC1 (stereo not given),"inconclusive: 35.5 µM [inhibitor, single point]",
O=C(Cc1cccs1)Nc1ccc(S(=O)(=O)N2CCCC2)cc1,,inactive: 10.1% [at 9.22 µM]
O=c1c2c(C(F)(F)F)cc(C(F)(F)F)nc2[nH]n1-c1ccccc1,"inconclusive: 25.1 µM [inhibitor, single point]",
CCOC(=O)N1CCN(C(=S)Nc2cccc(C)c2C)CC1,"inconclusive: 3.16 µM [inhibitor, single point]",
CC(=O)C1=C(O)CC(c2ccccc2)CC1=NCCc1c(C)[nH]c2ccc(C)cc12 (stereo not given),inactive,
CSc1nsc(N/N=C/c2ccccc2)c1C#N,inactive,
c1ccc2nc3ccccc3nc2c1,inactive,
CC1(C)CC(=O)C2=C(C1)N=C1SCCC(=O)N1C2c1ccccc1 (stereo not given),inactive,
COc1cc(-c2nnc(NC(=O)c3ccc(S(=O)(=O)N4CCOCC4)cc3)o2)cc(OC)c1OC,inactive,
Cc1cc(Sc2nc(N)ncc2[N+](=O)[O-])ncn1,"inconclusive: 35.5 µM [inhibitor, single point]",
Brc1ccc(N=Nc2ccc3ccccc3n2)cc1,,inactive: -2.84% [at 9.22 µM]
N#CCCN1CCN(CCC#N)CC1,inactive,
CCCCCCNS(=O)(=O)c1ccc(OC)c(OC)c1,"inconclusive: 14.1 µM [inhibitor, single point]",
COc1ccc(-c2cc(C3CCN(Cc4ccc([N+](=O)[O-])cc4)CC3)[nH]n2)cc1,"inconclusive: 15.8 µM [inhibitor, single point]",
O=C(Nc1nnc(-c2ccccn2)o1)c1ccc(Br)cc1,"inconclusive: 35.5 µM [inhibitor, single point]",
COc1ccc2c(=O)c3c(=O)n(Cc4ccco4)c(-c4cc(OC)c(OC)c(OC)c4)nc3oc2c1,inactive,

# Already shown: entries from further up.
SMILES,Potency,"activity change, negative = inhibition"
CCOC(=O)N1CCN(C(=S)Nc2cccc(C)c2C)CC1,"inconclusive: 3.16 µM [inhibitor, single point]",
CC(=O)C1=C(O)CC(c2ccccc2)CC1=NCCc1c(C)[nH]c2ccc(C)cc12 (stereo not given),inactive,
CSc1nsc(N/N=C/c2ccccc2)c1C#N,inactive,
c1ccc2nc3ccccc3nc2c1,inactive,
CC1(C)CC(=O)C2=C(C1)N=C1SCCC(=O)N1C2c1ccccc1 (stereo not given),inactive,

# (more compounds)

SMILES,Potency,"activity change, negative = inhibition"
CCOc1ccc(C2C(C#N)=C(N)Oc3nc[nH]c(=O)c32)cc1 (stereo not given),"inconclusive: 10 µM [activator, partial curve]",
O=C1CN2NC(=S)N(c3ccc(Cl)cc3)C2=CN1c1ccc(Cl)cc1,,inactive: -0.798% [at 9.22 µM]
COc1cc(OC)cc(C(=O)NCc2n[nH]c(=S)n2-c2ccccc2OC)c1,inactive,
O=C(NNC(=S)NC(=O)c1ccccc1[N+](=O)[O-])c1ccc(Cl)cc1Cl,"inconclusive: 25.1 µM [inhibitor, single point]",
COc1ccccc1C1CC(c2cccs2)=Nc2ccccc2S1 (stereo not given),inactive,
O=C(NCc1ccccc1Cl)C(=O)NCC1OCCN1S(=O)(=O)c1cccs1 (stereo not given),inactive,
CC(=O)c1c(C)n(CC(=O)NCc2ccc3c(c2)OCO3)c2ccccc12,"inconclusive: 22.4 µM [inhibitor, single point]",
NS(=O)(=O)c1ccc(N/C=C/C(=O)c2ccc(Br)cc2)cc1,"inconclusive: 5.62 µM [inhibitor, single point]",
CC(C)CCNC(=O)COc1ccc(C(=O)c2ccccc2)cc1,"inconclusive: 11.2 µM [inhibitor, partial curve]",
O=C(c1ccccc1)N1CCN(c2ncnc3sc4c(c23)CCC4)CC1,active: 35.5 µM,
O=C(CC(Nc1cccc(Cl)c1Cl)C(=O)OCC(=O)c1cccs1)c1ccccc1 (stereo not given),"inconclusive: 11.2 µM [activator, partial curve]",
CC(=O)Nc1cccc(OCC(=O)/C=C2\N(C)c3ccccc3C2(C)C)c1,active: 11.2 µM,
Fc1ccc(-c2csc3[n+]2CCS3)cc1,inactive,
Cc1cc(C)nc(-n2nc(C)cc2Nc2ccccc2)n1,"inconclusive: 5.62 µM [activator, single point]",
COc1cccc(C(=O)Nc2cc(C)ccc2NC(=O)COc2ccccc2)c1,inactive,
CC(=O)Nc1ccc(S(=O)(=O)Nc2ccc(-c3ccc4nnc(C)n4n3)cc2)cc1,"inconclusive: 35.5 µM [activator, single point]",
COc1ccccc1C(=O)COC(=O)CNS(=O)(=O)c1ccc(C)cc1,inactive,
COc1cccc(C(=O)c2sc(NC(C)C)nc2N)c1,"inconclusive: 25.1 µM [inhibitor, single point]",
Cc1cc(C)c(C#N)c(SCC(=O)OC2CCCCC2)n1,inactive,
O=C(NCc1ccccn1)c1ccccc1-c1ccccc1,"inconclusive: 1 µM [inhibitor, single point]",
COC(=O)c1ccccc1NC(=S)NC(=O)c1cccc2ccccc12,inactive,
COCCCNC(=O)Cn1c(=O)n(CCCCCC(=O)NCc2ccc3c(c2)OCO3)c(=O)c2sccc21,"inconclusive: 1.78 µM [activator, partial curve]",
